# Measurements: ChEMBL document CHEMBL1135234, “2-Arylindoles as gonadotropin releasing hormone (GnRH) antagonists: optimization of the tryptamine side chain” (Bioorg Med Chem Lett, 2002)
# Sequences of proteins named here, by UniProt entry; tags and fusion partners are left off.
# UniProt P08684, whole entry: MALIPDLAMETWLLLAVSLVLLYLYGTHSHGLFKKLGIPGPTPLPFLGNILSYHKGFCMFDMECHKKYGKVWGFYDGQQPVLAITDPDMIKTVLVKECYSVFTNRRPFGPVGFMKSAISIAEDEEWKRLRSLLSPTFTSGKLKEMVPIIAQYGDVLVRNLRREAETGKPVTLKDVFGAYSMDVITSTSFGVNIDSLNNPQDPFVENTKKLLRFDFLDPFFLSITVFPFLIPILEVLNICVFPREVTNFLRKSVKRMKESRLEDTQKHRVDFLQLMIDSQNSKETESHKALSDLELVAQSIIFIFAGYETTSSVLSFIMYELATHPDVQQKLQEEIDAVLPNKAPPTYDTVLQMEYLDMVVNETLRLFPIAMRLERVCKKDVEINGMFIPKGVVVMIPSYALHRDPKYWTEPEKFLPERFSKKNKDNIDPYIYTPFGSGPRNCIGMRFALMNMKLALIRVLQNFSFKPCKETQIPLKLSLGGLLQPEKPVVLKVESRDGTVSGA
# Target: Cytochrome P450 3A4 (Homo sapiens, UniProt P08684)
# Experiment: Inhibition of cytochrome P450 3A4 enzyme
smiles,measurement,value
Cc1cc(C)cc(-c2[nH]c3ccc(C(C)(C)C(=O)N4CC5CCC4CC5)cc3c2[C@H](C)CNCCc2ccc3nn[nH]c3c2)c1,IC50,7.5 µM
